# Reference: article PMC9225179
# Assays:
# Assay in all cases: EMSA
# [1] = system: TBP (TATA-binding protein) + TFIIF + RNA polymerase II core enzyme; conditions: no TFIIB; EMSA: 20 mM HEPES pH 7.9, 50 mM KCl, 5 mM MgCl2, 0.1 mM EDTA, 5% glycerol, 0.5% PEG 8000, 2 mM DTT, 0.1 mM PMSF, 50 ng acetylated BSA, 50 ng poly(dG-dC), 5-10 ng probe; recombinant protein; label: 5' 32P
# [2] = system: TBP (TATA-binding protein) + TFIIB (SpIIB) + TFIIF + RNA polymerase II core enzyme; conditions: TFIIF 20 or 40 ng, RNAPII 100 ng; EMSA: 20 mM HEPES pH 7.9, 50 mM KCl, 5 mM MgCl2, 0.1 mM EDTA, 5% glycerol, 0.5% PEG 8000, 2 mM DTT, 0.1 mM PMSF, 50 ng acetylated BSA, 50 ng poly(dG-dC), 5-10 ng probe; recombinant protein; label: 5' 32P
# [3] = system: TBP (TATA-binding protein) + TFIIB (SpIIB); conditions: 20 ng each factor; EMSA: 20 mM HEPES pH 7.9, 50 mM KCl, 5 mM MgCl2, 0.1 mM EDTA, 5% glycerol, 0.5% PEG 8000, 2 mM DTT, 0.1 mM PMSF, 50 ng acetylated BSA, 50 ng poly(dG-dC), 5-10 ng probe; recombinant protein; label: 5' 32P
sequence,measurement,setting,value
GGCTATAAAAGGGGGTGGGGAGGACTTCCCCCCGATATTTTCCCCCACCCC (double strand) [Ad-MLP TATA box probe],binding result,[1],no binding
same,binding result,[2],binds
same,binding result,[3],binds

# For at least one entry, the source does not settle the construct or the ends of the probe. For part of these data: No signal at the amounts used counts as a negative.
